In PMC11421793:

Columns and labels:
[1] = biological target: T1, IMC6^2-290-3xHA F205* (Azi at 205) (Toxoplasma gondii) (UniProt S8F8Q1); assay: cross-linking; Azi photocrosslinking (365 nm, 20 min, on ice) in parasites; whole cell lysates, anti-HA western blot; size of the crosslinked product compared between strains with untagged and smMyc-tagged candidate partner
T1 sequence (chain, p-azidophenylalanine (Azi) at 205 (amber stop codon)): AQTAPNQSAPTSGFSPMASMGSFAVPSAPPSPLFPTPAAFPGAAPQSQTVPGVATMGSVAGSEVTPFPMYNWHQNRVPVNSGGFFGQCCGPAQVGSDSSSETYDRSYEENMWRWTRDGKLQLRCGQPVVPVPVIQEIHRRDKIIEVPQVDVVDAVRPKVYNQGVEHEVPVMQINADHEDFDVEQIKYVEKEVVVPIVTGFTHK

[2] = biological target: T2, IMC6^2-290-3xHA H203* (Azi at 203) (Toxoplasma gondii) (UniProt S8F8Q1); assay: as above
T2 sequence (chain, p-azidophenylalanine (Azi) at 203 (amber stop codon)): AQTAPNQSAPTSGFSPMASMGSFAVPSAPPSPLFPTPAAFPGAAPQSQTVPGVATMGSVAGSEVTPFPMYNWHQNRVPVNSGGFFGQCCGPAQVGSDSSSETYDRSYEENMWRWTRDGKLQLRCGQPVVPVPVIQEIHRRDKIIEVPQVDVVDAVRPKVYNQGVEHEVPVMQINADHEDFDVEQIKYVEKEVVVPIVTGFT

[3] = biological target: T3, IMC6^2-290-3xHA Q185* (Azi at 185) (Toxoplasma gondii) (UniProt S8F8Q1); assay: as above
T3 sequence (chain, p-azidophenylalanine (Azi) at 185 (amber stop codon)): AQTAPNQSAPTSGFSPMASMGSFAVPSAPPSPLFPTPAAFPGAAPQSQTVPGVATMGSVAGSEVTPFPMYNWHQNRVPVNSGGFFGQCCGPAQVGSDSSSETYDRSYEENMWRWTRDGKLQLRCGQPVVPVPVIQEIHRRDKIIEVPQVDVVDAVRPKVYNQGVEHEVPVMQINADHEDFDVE

[4] = biological target: T4, IMC6^2-290-3xHA N162* (Azi at 162) (Toxoplasma gondii) (UniProt S8F8Q1); assay: cross-linking + co-IP; Azi photocrosslinking (365 nm, 20 min, on ice) in parasites; lysate boiled in 1% SDS, diluted 10-fold to RIPA conditions; IP with anti-HA agarose overnight at 4°C; blots with anti-HA and anti-IMC3
T4 sequence (chain, p-azidophenylalanine (Azi) at 162 (amber stop codon)): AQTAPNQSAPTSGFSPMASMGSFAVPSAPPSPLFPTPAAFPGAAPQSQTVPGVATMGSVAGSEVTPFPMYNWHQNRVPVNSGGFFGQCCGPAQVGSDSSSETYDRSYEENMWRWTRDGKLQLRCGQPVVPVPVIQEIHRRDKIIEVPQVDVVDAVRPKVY

[5] = biological target: T5, IMC6^2-290-3xHA E229* (Azi at 229) (Toxoplasma gondii) (UniProt S8F8Q1); assay: cross-linking; Azi photocrosslinking (365 nm, 20 min, on ice) in parasites; whole cell lysates, anti-HA western blot; size of the crosslinked product compared between strains with untagged and smMyc-tagged candidate partner
T5 sequence (chain, p-azidophenylalanine (Azi) at 229 (amber stop codon)): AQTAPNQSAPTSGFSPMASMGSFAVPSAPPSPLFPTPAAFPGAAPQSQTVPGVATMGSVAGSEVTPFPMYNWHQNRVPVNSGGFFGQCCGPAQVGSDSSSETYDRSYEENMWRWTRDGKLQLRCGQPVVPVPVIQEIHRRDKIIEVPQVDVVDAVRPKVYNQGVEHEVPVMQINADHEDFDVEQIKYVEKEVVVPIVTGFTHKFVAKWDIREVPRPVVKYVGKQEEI

[6] = biological target: T6, IMC6^2-290-3xHA E243* (Azi at 243) (Toxoplasma gondii) (UniProt S8F8Q1); assay: as above
T6 sequence (chain, p-azidophenylalanine (Azi) at 243 (amber stop codon)): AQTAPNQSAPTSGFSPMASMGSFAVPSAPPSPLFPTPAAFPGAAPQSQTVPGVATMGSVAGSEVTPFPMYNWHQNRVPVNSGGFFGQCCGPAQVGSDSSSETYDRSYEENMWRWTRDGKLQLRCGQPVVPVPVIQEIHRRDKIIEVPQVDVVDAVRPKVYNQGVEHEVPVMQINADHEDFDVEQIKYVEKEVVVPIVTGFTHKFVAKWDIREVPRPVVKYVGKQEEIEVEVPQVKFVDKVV

[7] = biological target: T7, IMC6^2-290-3xHA E245* (Azi at 245) (Toxoplasma gondii) (UniProt S8F8Q1); assay: as above
T7 sequence (chain, p-azidophenylalanine (Azi) at 245 (amber stop codon)): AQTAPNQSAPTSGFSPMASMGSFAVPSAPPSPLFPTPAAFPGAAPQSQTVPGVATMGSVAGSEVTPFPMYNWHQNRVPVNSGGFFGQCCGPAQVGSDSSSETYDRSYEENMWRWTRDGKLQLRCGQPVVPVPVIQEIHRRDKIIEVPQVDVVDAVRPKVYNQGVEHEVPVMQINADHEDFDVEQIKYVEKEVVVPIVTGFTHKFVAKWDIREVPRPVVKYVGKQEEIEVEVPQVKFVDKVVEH

[8] = biological target: T8, IMC6^2-290-3xHA K277* (Azi at 277) (Toxoplasma gondii) (UniProt S8F8Q1); assay: as above
T8 sequence (chain, p-azidophenylalanine (Azi) at 277 (amber stop codon)): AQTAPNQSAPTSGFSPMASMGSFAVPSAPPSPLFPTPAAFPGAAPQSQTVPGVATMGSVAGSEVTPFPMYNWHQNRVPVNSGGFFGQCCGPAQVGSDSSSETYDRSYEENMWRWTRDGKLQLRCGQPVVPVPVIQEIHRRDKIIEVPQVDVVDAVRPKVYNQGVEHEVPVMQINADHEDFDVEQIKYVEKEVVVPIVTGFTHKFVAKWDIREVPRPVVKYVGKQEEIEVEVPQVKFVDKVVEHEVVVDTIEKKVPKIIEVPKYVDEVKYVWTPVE

[9] = biological target: T4, IMC6^2-290-3xHA N162* (Azi at 162) (Toxoplasma gondii); assay: as above
[10] = biological target: T9, IMC6^2-290-3xHA Y221* (Azi at 221) (Toxoplasma gondii) (UniProt S8F8Q1); assay: as above
T9 sequence (chain, p-azidophenylalanine (Azi) at 221 (amber stop codon)): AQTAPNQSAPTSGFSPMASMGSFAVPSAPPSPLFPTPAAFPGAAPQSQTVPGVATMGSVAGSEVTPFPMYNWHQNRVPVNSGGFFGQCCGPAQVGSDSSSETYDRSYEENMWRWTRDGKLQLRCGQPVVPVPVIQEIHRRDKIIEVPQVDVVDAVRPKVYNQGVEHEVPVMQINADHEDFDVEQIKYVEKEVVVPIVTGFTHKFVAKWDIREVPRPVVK

Measured: binding

ILP1-smMyc
binds: [1] | [2] | [3]

IMC3 (from UniProt S8FA55)
binds: [4]

IMC3-smMyc (from UniProt S8FA55)
binds: [5] | [6] | [7] | [8] | [9] | [10]

Results are given in words; binding and its absence hold for the method and conditions named. Binding seen in cells or lysates may run through a third protein. Binding calls can cover weak binding; strength is not graded here.
